Data published in PubChem BioAssay AID1487 (National Center for Advancing Translational Sciences (NCATS), 2009).
The list shows a part of the results. The main result of the screen is listed elsewhere. These columns were measured beside it and carry no call. The list favours compounds with an active or inconclusive main result. Words in brackets tell the shape of the fitted curve; partial curves, single points and poor fits give uncertain potencies.

Test: qHTS Assay for Modulators of Lamin A Splicing
Conditions: HeLa LMNA splicing GFP/RFP minigene ratio, 48 h
Outline: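 Read-out is the ratio of GFP to DsRed2 object intensity, acquired by 488 nm laser-scanning cytometry on HeLa lamin A-EGFP minigene reporter cells. Compound incubation 48 hrs at 37 °C in Opti-MEM with 2% FBS; DMSO 0.5% final.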

[1] = measured here: GFP splicing reporter channel
[2] = measured here: RFP viability control channel

Cc1cc(C(F)(F)F)n(-c2nc(C(=O)N/N=C/c3ccc(F)cc3)cs2)n1
AC50 [1]: 35.5 µM [falling, partial curve] | AC50 [2]: 35.5 µM [falling, single point]

O=C(NCC1CCCO1)C(c1cccs1)N(Cc1ccccc1Cl)C(=O)c1ccc(-c2ccccc2)[nH]1 (centres undefined)
AC50 [2]: 12.6 µM [rising, partial curve]

CCOc1ccc(CC(=O)Nc2nnc3n2CCS3)cc1
AC50 [1]: 0.0355 µM [falling, full curve] | AC50 [2]: 0.02 µM [falling, full curve, poor fit]

COc1cccc(NC(=O)CSc2nccn2-c2cccc(OC)c2)c1
AC50 [1]: 22.4 µM [rising, partial curve, poor fit]

Cc1ccc(Cn2cccc(NC(=O)c3ccco3)c2=O)cc1
AC50 [2]: 12.6 µM [rising, partial curve]

CCc1ccc(-c2nc(CS(=O)CC(=O)NCCc3ccc(Cl)cc3)c(C)o2)cc1 (centres undefined)
AC50 [1]: 1.41 µM [falling, partial curve]

O=C1CCSC2(C(=O)N(Cc3ccc(F)cc3)c3ccccc32)N1c1ccc(F)c(F)c1 (centres undefined)
AC50 [1]: 0.0708 µM [rising, full curve, poor fit]

O=C1c2ccccc2C(Nc2cccc(C(F)(F)F)c2)N1Cc1ccco1 (centres undefined)
AC50 [1]: 10 µM [rising, partial curve, poor fit] | AC50 [2]: 11.2 µM [rising, partial curve]

Cc1ccc(-n2ncc(C#N)c2/N=C/N(C)C)cc1
AC50 [1]: 20 µM [rising, single point]

CCN(CC)c1ccc(NC(=O)c2cccc(C)c2OC)c(C)c1
AC50 [2]: 15.8 µM [rising, single point]

Cc1c(C(=O)Nc2cccc(Cl)c2)oc2ccc(S(=O)(=O)N(C)C3CCCCC3)cc12
AC50 [1]: 0.158 µM [falling, single point]

COc1cc(C)c(C)cc1S(=O)(=O)Nc1cccc(-c2ccc(N3CCOCC3)nn2)c1
AC50 [2]: 3.55 µM [rising, full curve, poor fit]

COC(=O)c1[nH]c2ccc(F)cc2c1NC(=O)CCN1CC(C)OC(C)C1 (centres undefined)
AC50 [1]: 3.16 µM [rising, single point]

COc1ccc(CCNC(=O)C(=O)NCC(c2ccco2)S(=O)(=O)c2ccc(F)cc2)cc1 (centres undefined)
AC50 [2]: 1.26 µM [falling, single point]

Fc1cccc(-c2cc3nc(-c4ccccc4)cc(N4CCC5(CC4)OCCO5)n3n2)c1
AC50 [2]: 31.6 µM [rising, single point]

O=C(Cn1[nH]c(=O)c2ccccc2c1=O)Nc1ccc2c(c1)CCC2
AC50 [2]: 10 µM [rising, single point]

CC(=O)Nc1sc(/C(C#N)=C/c2ccc(Cl)c(Cl)c2)nc1-c1ccc(C)cc1
AC50 [2]: 0.0158 µM [falling, partial curve, poor fit]

CCn1c(/C=C2\C(=O)N(C)c3ccccc32)nc2ccccc2c1=O
AC50 [1]: 8.91 µM [rising, partial curve, poor fit]

CN(C)CCNC(=O)c1coc(=O)c(Br)c1
AC50 [1]: 5.01 µM [falling, full curve, poor fit] | AC50 [2]: 8.91 µM [falling, partial curve, poor fit]

Cn1ccc2c(OCC(=O)Nc3cc(C(F)(F)F)ccc3Cl)cccc2c1=O
AC50 [1]: 0.891 µM [falling, full curve, poor fit]

CCCc1cc(C(=O)Nc2nccs2)cs1
AC50 [1]: 12.6 µM [rising, single point] | AC50 [2]: 14.1 µM [rising, single point]

CCS(=O)(=O)Nc1ccc(C2=NN(S(C)(=O)=O)C(c3cccs3)C2)cc1 (centres undefined)
AC50 [2]: 0.708 µM [rising, full curve]

CC(=O)N1CCc2cc(S(=O)(=O)CCC(=O)NCc3ccc(Cl)cc3)ccc21
AC50 [1]: 20 µM [falling, partial curve] | AC50 [2]: 0.00891 µM [falling, full curve]

Cc1cccc(NC(=O)C(=O)NCC(c2ccc3c(c2)OCO3)N2CCN(C)CC2)c1C (centres undefined)
AC50 [2]: 0.447 µM [falling, partial curve, poor fit]

COc1ccc(C(=O)/C=C/c2ccc(OC)c(O)c2)c(F)c1
AC50 [1]: 8.91 µM [falling, partial curve, poor fit] | AC50 [2]: 3.16 µM [falling, partial curve]

CCOc1ccccc1N=C1SC(CC(=O)Nc2ccc(OC)cc2OC)C(=O)N1CCC1=CCCCC1 (centres undefined)
AC50 [1]: 14.1 µM [rising, single point] | AC50 [2]: 25.1 µM [rising, single point]

CC[C@]1(O)C[C@H]2CN(CCc3c([nH]c4ccccc34)[C@@](C(=O)OC)(c3cc4c(cc3OC)N(C=O)[C@H]3[C@@](O)(C(=O)OC)[C@H](OC(C)=O)[C@]5(CC)C=CCN6CC[C@]43[C@@H]65)C2)C1
AC50 [1]: 0.282 µM [rising, full curve] | AC50 [2]: 0.00112 µM [rising, full curve, poor fit]

COc1ccccc1/C=C1\SC(=S)N(CC(=O)Nc2nnc(C)s2)C1=O
AC50 [2]: 17.8 µM [falling, partial curve, poor fit]

Cc1ccc(CNS(=O)(=O)NCc2cccs2)cc1
AC50 [2]: 4.47 µM [falling, single point]

COCCCNC(=O)c1oc2ccc(S(=O)(=O)N(C)C3CCCCC3)cc2c1C
AC50 [2]: 22.4 µM [rising, single point]

CCOC(=O)C1CC(c2ccc(Cl)cc2)=NNC1=O (centres undefined)
AC50 [2]: 0.141 µM [falling, full curve, poor fit]

Cc1cc(Nc2cccc(Cl)c2)nc2ccc(NC(=O)Cc3cccc(C(F)(F)F)c3)cc12
AC50 [1]: 10 µM [falling, partial curve] | AC50 [2]: 10 µM [falling, partial curve]

Cn1c(=O)n(C/C=C/c2ccccc2)c(=O)c2c1nc1n2CCCN1Cc1ccccc1
AC50 [2]: 20 µM [rising, single point]

C=CCNC(=O)C1CCN(c2ccc(S(=O)(=O)N3CCOCC3)cc2[N+](=O)[O-])CC1
AC50 [2]: 0.00398 µM [rising, full curve, poor fit]
